No constants are given. Whether binding was seen depends on the method and setting. Binding seen in cells or lysates may run through a third protein. Some results given as binding are weak or reduced against the parent protein; the word gives no strength.
Molecular target: Period (PER) M560D, tagged with HA or c-myc at the C terminus (Drosophila) (UniProt P07663)
Experiment: co-IP; head extracts of per^01 flies double homozygous for HA- and c-myc-tagged PER transgenes, collected at ZT20 (also ZT16 and ZT2) in 12-h:12-h LD at 25 °C; anti-MYC antibody on Protein G Sepharose beads, 16 h at 4 °C; extraction buffer 20 mM Hepes pH 7.5, 100 mM KCl, 1 mM DTT, 5% glycerol, 0.05% Nonidet P40; blots with anti-HA and anti-TIM

Amino acid sequences for entries named in this document (tags omitted). A change or cut given only in a name is not applied to a line headed by its entry. Chains listed by the source or under a name are the forms on record and can include a tag or linker.
Period (PER) M560D, tagged with HA or c-myc at the C terminus (P07663, form named): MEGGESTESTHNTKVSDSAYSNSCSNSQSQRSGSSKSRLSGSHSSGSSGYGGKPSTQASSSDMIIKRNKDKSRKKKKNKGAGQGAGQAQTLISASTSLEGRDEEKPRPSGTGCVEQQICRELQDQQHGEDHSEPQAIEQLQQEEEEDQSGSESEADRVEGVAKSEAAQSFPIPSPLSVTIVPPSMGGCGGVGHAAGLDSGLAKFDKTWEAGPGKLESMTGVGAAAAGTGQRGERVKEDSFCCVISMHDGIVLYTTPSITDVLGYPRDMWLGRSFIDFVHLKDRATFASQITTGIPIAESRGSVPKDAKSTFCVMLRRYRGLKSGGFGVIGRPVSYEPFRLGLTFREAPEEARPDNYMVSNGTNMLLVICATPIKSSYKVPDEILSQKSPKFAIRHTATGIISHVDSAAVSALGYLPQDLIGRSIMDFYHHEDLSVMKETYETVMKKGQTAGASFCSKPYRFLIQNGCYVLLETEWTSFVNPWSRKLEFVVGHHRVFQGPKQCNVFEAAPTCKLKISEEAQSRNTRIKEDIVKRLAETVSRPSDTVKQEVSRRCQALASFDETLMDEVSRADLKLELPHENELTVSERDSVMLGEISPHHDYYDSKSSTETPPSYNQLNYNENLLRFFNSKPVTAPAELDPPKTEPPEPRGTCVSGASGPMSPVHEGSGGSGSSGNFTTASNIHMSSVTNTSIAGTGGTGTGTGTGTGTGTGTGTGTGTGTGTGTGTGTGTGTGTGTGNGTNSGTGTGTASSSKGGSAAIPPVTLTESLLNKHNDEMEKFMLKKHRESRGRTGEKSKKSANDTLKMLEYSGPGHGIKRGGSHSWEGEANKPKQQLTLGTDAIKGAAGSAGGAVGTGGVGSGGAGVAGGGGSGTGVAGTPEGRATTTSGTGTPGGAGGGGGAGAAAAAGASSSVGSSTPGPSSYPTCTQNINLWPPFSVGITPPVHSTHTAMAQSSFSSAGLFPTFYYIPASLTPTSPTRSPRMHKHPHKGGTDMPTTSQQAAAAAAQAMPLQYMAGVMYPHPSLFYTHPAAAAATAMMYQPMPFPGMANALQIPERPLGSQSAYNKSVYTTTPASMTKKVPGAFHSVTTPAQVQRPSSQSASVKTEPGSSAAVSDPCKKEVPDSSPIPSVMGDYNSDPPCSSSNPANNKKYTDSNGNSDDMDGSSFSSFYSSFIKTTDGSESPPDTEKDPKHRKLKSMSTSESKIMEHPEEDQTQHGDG

binding: binds
B1: Timeless (TIM) (protein, UniProt P49021 1-1398)
chain: MDWLLATPQLYSAFSSLGCLEGDTYVVNPNALAILEEINYKLTYEDQTLRTFRRAIGFGQNVRSDLIPLLENAKDDAVLESVIRILVNLTVPVECLFSVDVMYRTDVGRHTIFELNKLLYTSKEAFTEARSTKSVVEYMKHILESDPKLSPHKCDQINNCLLLLRNILHIPETHAHCVMPMMQSMPHGISMQNTILWNLFIQSIDKLLLYLMTCPQRAFWGVTMVQLIALIYKDQHVSTLQKLLSLWFEASLSESSEDNESNTSPPKQGSGDSSPMLTSDPTSDSSDNGSNGRGMGGGMREGTAATLQEVSRKGQEYQNAMARVPADKPDGSEEASDMTGNDSEQPGSPEQSQPAGESMDDGDYEDQRHRQLNEHGEEDEDEDEVEEEEYLQLGPASEPLNLTQQPADKVNNTTNPTSSAPQGCLGNEPFKPPPPLPVRASTSAHAQMQKFNESSYASHVSAVKLGQKSPHAGQLQLTKGKCCPQKRECPSSQSELSDCGYGTQVENQESISTSSNDDDGPQGKPQHQKPPCNTKPRNKPRTIMSPMDKKELRRKKLVKRSKSSLINMKGLVQHTPTDDDISNLLKEFTVDFLLKGYSYLVEELHMQLLSNAKVPIDTSHFFWLVTYFLKFAAQLELDMEHIDTILTYDVLSYLTYEGVSLCEQLELNARQEGSDLKPYLRRMHLVVTAIREFLQAIDTYNKVTHLNEDDKAHLRQLQLQISEMSDLRCLFVLLLRRFNPSIHSKQYLQDLVVTNHILLLILDSSAKLGGCQTIRLSEHITQFATLEVMHYYGILLEDFNNNGEFVNDCIFTMMHHIGGDLGQIGVLFQPIILKTYSRIWEADYELCDDWSDLIEYVIHKFMNTPPKSPLTIPTTSLTEMTKEHNQEHTVCSWSQEEMDTLYWYYVQSKKNNDIVGKIVKLFSNNGNKLKTRISIIQQLLQQDIITLLEYDDLMKFEDAEYQRTLLTTPTSATTESGIEIKECAYGKPSDDVQILLDLIIKENKAQHLLWLQRILIECCFVKLTLRSGLKVPEGDHIMEPVAYHCICKQKSIPVVQWNNEQSTTMLYQPFVLLLHKLGIQLPADAGSIFARIPDYWTPETMYGLAKKLGPLDKLNLKFDASELEDATASSPSRYHHTGPRNSLSSVSSLDVDLGDTEELALIPEVDAAVEKAHAMASTPSPSEIFAVPKTKHCNSIIRYTPDPTPPVPNWLQLVMRSKCNHRTGPSGDPSDCIGSSSTTVDDEGFGKSISAATSQAASTSMSTVNPTTTLSLNMLNTFMGSHNENSSSSGCGGTVSSLSMVALMSTGAAGGGGNTSGLEMDVDASMKSSFERLEVNGSHFSRANNLDQEYSAMVASVYEKEKELNSDNVSLASDLTRMYVSDEDDRLERTEIRVPHYH

Reference: article PMC2671555
